{"source": "PubChem BioAssay AID248", "about": "(DTP/NCI, 2004)", "tested_on": "L1210 leukemia ip in BDF1 mice, survival T/C", "test": "NCI In Vivo Anticancer Drug Screen. Data for tumor model L1210 Leukemia (intraperitoneal) in B6D2F1 (BDF1) mice", "settings": "T/C endpoint: mean survival time, vehicle: saline, higher T/C = longer survival", "note": "The list is a part of this screen's results and no random one: it is rich in T/C values a quarter to a half above the control, in often repeated tests (any T/C) and in doses without a T/C. Other doses and runs of a compound stand elsewhere. T/C gives the treated animals as a percentage of the vehicle group. Where survival is the endpoint, the PubChem record calls one and a half times the control and up active, and a quarter to a half above the control has no call in these data; cut-offs in other NCI protocols can differ. Schedules are NCI's codes, taken here to give the interval after Q, in days (D) or hours (H), and the number of doses after X. Counts like (3×) stand for listed records that agree. Some doses were run more than once; their values stand side by side, smallest first. Some schedules carry Z or #; the key to these is not given."}
{"smiles": "CSc1ncnc2c1ncn2C1OC(CO)C(O)C1O", "note": "(stereo unspecified)", "values": [{"measurement": "T/C", "setting": "dose: 1.0 mg/kg/injection, schedule: Q#A X Z (ip)", "result": "128 % of control"}, {"measurement": "T/C", "setting": "dose: 1.63 mg/kg/injection, schedule: Q07DX003 (ip)", "result": "130 % of control"}, {"measurement": "T/C", "setting": "dose: 2.0 mg/kg/injection, schedule: Q#A X Z (ip)", "result": "128 and 136 % of control"}, {"measurement": "T/C", "setting": "dose: 2.5 mg/kg/injection, schedule: Q06HX068 (ip)", "result": "129 % of control"}, {"measurement": "T/C", "setting": "dose: 3.2 mg/kg/injection, schedule: Q07DX003 (ip)", "result": "125 % of control"}, {"measurement": "T/C", "setting": "dose: 4.0 mg/kg/injection, schedule: Q01DX009 (ip)", "result": "101, 113, 117, 120 % of control"}, {"measurement": "T/C", "setting": "dose: 4.0 mg/kg/injection, schedule: Q01DX Z (ip)", "result": "126 and 129 % of control"}, {"measurement": "T/C", "setting": "dose: 4.0 mg/kg/injection, schedule: Q#A X Z (ip)", "result": "134 and 145 % of control"}, {"measurement": "T/C", "setting": "dose: 5.0 mg/kg/injection, schedule: Q01DX010 (ip)", "result": "135 % of control"}, {"measurement": "T/C", "setting": "dose: 5.0 mg/kg/injection, schedule: Q06HX068 (ip)", "result": "141 % of control"}, {"measurement": "T/C", "setting": "dose: 5.3 mg/kg/injection, schedule: Q06HX012 (ip)", "result": "129 % of control"}, {"measurement": "T/C", "setting": "dose: 6.25 mg/kg/injection, schedule: Q01DX009 (ip)", "result": "131 % of control"}, {"measurement": "T/C", "setting": "dose: 8.0 mg/kg/injection, schedule: Q01DX009 (ip), evaluated on day 5", "result": "119 and 138 % of control"}, {"measurement": "T/C", "setting": "dose: 8.0 mg/kg/injection, schedule: Q01DX009 (ip), evaluated on day 30", "result": "118, 128 (2×), 129 % of control"}, {"measurement": "T/C", "setting": "dose: 8.0 mg/kg/injection, schedule: Q01DX009 (ip), evaluated on day 45", "result": "119 and 138 % of control"}, {"measurement": "T/C", "setting": "dose: 8.0 mg/kg/injection, schedule: Q01DX Z (ip)", "result": "132, 140, 146 % of control"}, {"measurement": "T/C", "setting": "dose: 8.0 mg/kg/injection, schedule: Q06HX012 (ip)", "result": "133 % of control"}, {"measurement": "T/C", "setting": "dose: 8.0 mg/kg/injection, schedule: Q12HX012 (ip)", "result": "132 % of control"}, {"measurement": "T/C", "setting": "dose: 8.0 mg/kg/injection, schedule: Q#A X Z (ip)", "result": "147 % of control"}, {"measurement": "T/C", "setting": "dose: 8.8 mg/kg/injection, schedule: Q01DX015 (ip)", "result": "127 % of control"}, {"measurement": "T/C", "setting": "dose: 9.0 mg/kg/injection, schedule: Q01DX015 (ip), evaluated on day 5", "result": "124, 126, 128, 129 (2×), 134, 136 (3×), 139 (2×), 140 (2×), 143 % of control"}, {"measurement": "T/C", "setting": "dose: 9.0 mg/kg/injection, schedule: Q01DX015 (ip), evaluated on day 35", "result": "140 % of control"}, {"measurement": "T/C", "setting": "dose: 9.0 mg/kg/injection, schedule: Q01DX015 (ip), evaluated on day 45", "result": "140 % of control"}, {"measurement": "T/C", "setting": "dose: 9.0 mg/kg/injection, schedule: Q01DX015 (ip), evaluated on day 46", "result": "121 % of control"}, {"measurement": "T/C", "setting": "dose: 9.0 mg/kg/injection, schedule: Q01DX015 (ip), run until all animals had died", "result": "125 % of control"}, {"measurement": "T/C", "setting": "dose: 9.0 mg/kg/injection, schedule: Q## X015 (ip)", "result": "129, 134, 143 % of control"}, {"measurement": "T/C", "setting": "dose: 10.0 mg/kg/injection, schedule: Q01DX010 (ip)", "result": "130, 136, 142 % of control"}, {"measurement": "T/C", "setting": "dose: 10.0 mg/kg/injection, schedule: Q01DX017 (ip)", "result": "126 % of control"}, {"measurement": "T/C", "setting": "dose: 10.0 mg/kg/injection, schedule: Q#A X034 (ip)", "result": "131 % of control"}, {"measurement": "T/C", "setting": "dose: 11.0 mg/kg/injection, schedule: Q01DX015 (ip)", "result": "128 and 131 % of control"}, {"measurement": "T/C", "setting": "dose: 11.7 mg/kg/injection, schedule: Q01DX015 (ip)", "result": "132 % of control"}, {"measurement": "T/C", "setting": "dose: 12.0 mg/kg/injection, schedule: Q01DX009 (ip), evaluated on day 5", "result": "127 and 130 % of control"}, {"measurement": "T/C", "setting": "dose: 12.0 mg/kg/injection, schedule: Q01DX009 (ip), evaluated on day 45", "result": "127 and 130 % of control"}, {"measurement": "T/C", "setting": "dose: 12.0 mg/kg/injection, schedule: Q01DX015 (ip)", "result": "129 % of control"}, {"measurement": "T/C", "setting": "dose: 12.5 mg/kg/injection, schedule: Q01DX005 (ip)", "result": "132 and 134 % of control"}, {"measurement": "T/C", "setting": "dose: 12.5 mg/kg/injection, schedule: Q01DX010 (ip)", "result": "132 and 139 % of control"}, {"measurement": "T/C", "setting": "dose: 13.0 mg/kg/injection, schedule: Q01DX015 (ip)", "result": "130 and 136 % of control"}, {"measurement": "T/C", "setting": "dose: 13.0 mg/kg/injection, schedule: Q02DX008 (ip)", "result": "135 % of control"}, {"measurement": "T/C", "setting": "dose: 13.0 mg/kg/injection, schedule: Q06HX012 (ip)", "result": "145 % of control"}, {"measurement": "T/C", "setting": "dose: 13.0 mg/kg/injection, schedule: Q07DX003 (ip)", "result": "125 % of control (2×)"}, {"measurement": "T/C", "setting": "dose: 13.0 mg/kg/injection, schedule: Q12HX006 (ip)", "result": "137 % of control"}, {"measurement": "T/C", "setting": "dose: 13.0 mg/kg/injection, schedule: Q12HX012 (ip)", "result": "148 % of control"}, {"measurement": "T/C", "setting": "dose: 14.0 mg/kg/injection, schedule: Q01DX015 (ip), evaluated on day 5", "result": "134, 137, 138, 139 (2×), 141, 145, 147 (2×), 148, 150, 151, 158, 159 % of control"}, {"measurement": "T/C", "setting": "dose: 14.0 mg/kg/injection, schedule: Q01DX015 (ip), evaluated on day 35", "result": "160 % of control"}, {"measurement": "T/C", "setting": "dose: 14.0 mg/kg/injection, schedule: Q01DX015 (ip), evaluated on day 45", "result": "150 % of control"}, {"measurement": "T/C", "setting": "dose: 14.0 mg/kg/injection, schedule: Q## X015 (ip)", "result": "138 and 141 % of control"}, {"measurement": "T/C", "setting": "dose: 14.0 mg/kg/injection, schedule: Q## X032 (ip)", "result": "126 % of control"}, {"measurement": "T/C", "setting": "dose: 15.0 mg/kg/injection, schedule: Q01DX010 (ip)", "result": "136 % of control"}, {"measurement": "T/C", "setting": "dose: 15.0 mg/kg/injection, schedule: Q01DX015 (ip)", "result": "144 % of control"}, {"measurement": "T/C", "setting": "dose: 16.0 mg/kg/injection, schedule: Q01DX009 (ip)", "result": "129, 134, 151, 155 % of control"}, {"measurement": "T/C", "setting": "dose: 16.0 mg/kg/injection, schedule: Q01DX010 (ip)", "result": "129, 132, 141 % of control"}, {"measurement": "T/C", "setting": "dose: 16.0 mg/kg/injection, schedule: Q01DX Z (im)", "result": "139 % of control"}, {"measurement": "T/C", "setting": "dose: 16.0 mg/kg/injection, schedule: Q01DX Z (ip)", "result": "139 % of control"}, {"measurement": "T/C", "setting": "dose: 17.0 mg/kg/injection, schedule: Q01DX015 (ip)", "result": "128 % of control"}, {"measurement": "T/C", "setting": "dose: 17.5 mg/kg/injection, schedule: Q01DX015 (ip)", "result": "147 % of control"}, {"measurement": "T/C", "setting": "dose: 18.0 mg/kg/injection, schedule: Q01DX009 (ip), evaluated on day 5", "result": "133 and 135 % of control"}, {"measurement": "T/C", "setting": "dose: 18.0 mg/kg/injection, schedule: Q01DX009 (ip), evaluated on day 45", "result": "133 and 135 % of control"}, {"measurement": "T/C", "setting": "dose: 18.0 mg/kg/injection, schedule: Q01DX015 (ip)", "result": "144 % of control"}, {"measurement": "T/C", "setting": "dose: 20.0 mg/kg/injection, schedule: Q01DX003 (ip), evaluated on day 5", "result": "141 % of control"}, {"measurement": "T/C", "setting": "dose: 20.0 mg/kg/injection, schedule: Q01DX003 (ip), evaluated on day 35", "result": "141 % of control"}, {"measurement": "T/C", "setting": "dose: 20.0 mg/kg/injection, schedule: Q01DX017 (ip)", "result": "127 % of control"}, {"measurement": "T/C", "setting": "dose: 20.0 mg/kg/injection, schedule: Q02DX008 (ip)", "result": "135 % of control"}, {"measurement": "T/C", "setting": "dose: 20.0 mg/kg/injection, schedule: Q06HX012 (ip)", "result": "135 % of control"}, {"measurement": "T/C", "setting": "dose: 20.0 mg/kg/injection, schedule: Q12HX006 (ip)", "result": "136 % of control"}, {"measurement": "T/C", "setting": "dose: 21.0 mg/kg/injection, schedule: Q01DX015 (ip), evaluated on day 5", "result": "147, 148, 152 (2×), 158, 163, 166, 167, 169, 175 (2×), 181, 186, 194 % of control"}, {"measurement": "T/C", "setting": "dose: 21.0 mg/kg/injection, schedule: Q01DX015 (ip), evaluated on day 35", "result": "175 % of control"}, {"measurement": "T/C", "setting": "dose: 21.0 mg/kg/injection, schedule: Q01DX015 (ip), evaluated on day 45", "result": "181 % of control"}, {"measurement": "T/C", "setting": "dose: 21.0 mg/kg/injection, schedule: Q01DX015 (ip), run until all animals had died", "result": "124 % of control"}, {"measurement": "T/C", "setting": "dose: 21.0 mg/kg/injection, schedule: Q## X015 (ip)", "result": "147 % of control"}, {"measurement": "T/C", "setting": "dose: 24.0 mg/kg/injection, schedule: Q## X032 (ip)", "result": "136 % of control"}, {"measurement": "T/C", "setting": "dose: 25.0 mg/kg/injection, schedule: Q01DX005 (ip)", "result": "137 % of control"}]}
